{"sequences": {"note": "Amino acid sequences for entries named in this document (tags omitted).", "UniProt P03209": "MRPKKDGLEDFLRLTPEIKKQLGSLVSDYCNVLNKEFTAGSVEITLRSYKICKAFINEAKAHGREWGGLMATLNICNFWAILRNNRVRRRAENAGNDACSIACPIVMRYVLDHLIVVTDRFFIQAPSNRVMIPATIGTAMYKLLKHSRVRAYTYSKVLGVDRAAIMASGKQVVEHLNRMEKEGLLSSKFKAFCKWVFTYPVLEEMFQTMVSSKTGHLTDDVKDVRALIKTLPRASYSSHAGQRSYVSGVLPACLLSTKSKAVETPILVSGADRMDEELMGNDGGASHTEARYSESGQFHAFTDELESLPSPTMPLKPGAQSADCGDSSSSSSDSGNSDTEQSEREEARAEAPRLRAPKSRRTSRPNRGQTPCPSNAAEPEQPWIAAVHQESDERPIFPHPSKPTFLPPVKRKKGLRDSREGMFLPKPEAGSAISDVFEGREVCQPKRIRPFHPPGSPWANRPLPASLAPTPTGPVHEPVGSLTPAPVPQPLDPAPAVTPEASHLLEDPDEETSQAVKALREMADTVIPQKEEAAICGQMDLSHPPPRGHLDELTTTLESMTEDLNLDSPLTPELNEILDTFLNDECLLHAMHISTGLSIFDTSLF", "UniProt Q9C035": "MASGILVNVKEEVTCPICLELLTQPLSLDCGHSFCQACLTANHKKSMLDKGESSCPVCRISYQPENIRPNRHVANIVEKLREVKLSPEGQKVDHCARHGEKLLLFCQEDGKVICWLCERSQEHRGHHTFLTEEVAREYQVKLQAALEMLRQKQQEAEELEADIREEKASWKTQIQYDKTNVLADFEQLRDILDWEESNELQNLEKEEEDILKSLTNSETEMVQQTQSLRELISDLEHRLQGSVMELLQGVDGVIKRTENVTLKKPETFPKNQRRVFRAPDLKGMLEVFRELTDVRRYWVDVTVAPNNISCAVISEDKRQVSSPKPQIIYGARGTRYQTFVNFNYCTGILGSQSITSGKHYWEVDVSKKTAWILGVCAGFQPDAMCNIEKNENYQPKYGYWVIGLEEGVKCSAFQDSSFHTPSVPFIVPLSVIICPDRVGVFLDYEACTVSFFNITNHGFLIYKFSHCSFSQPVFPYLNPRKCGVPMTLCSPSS"}, "source": "paper PMC5214253", "molecular_target": "Replication and transcription activator (Rta) of Epstein–Barr virus, endogenous in lytically induced P3HR1 cells (Epstein–Barr virus (endogenous in P3HR1)) (UniProt P03209)", "experiment": "affinity purification with mass spectrometry", "note": "Results are given in words; binding and its absence hold for the method and conditions named. In cells and extracts the contact can be indirect. These calls come from enrichment with a bait or labelling near it, and not all partners need be listed.", "data": [{"substance": "TRIM5α, endogenous in P3HR1 cells (from UniProt Q9C035 1-493)", "values": [{"measurement": "binding", "value": "binds"}]}]}
